In paper PMC11315126 one finds binding data, which are given here for one substance.

Results are given in words; binding and its absence hold for the method and conditions named. Where a sequence is shown, tags or fusion partners need not be part of it.

For this test, the target named is T1, His6TraW (E. coli F plasmid) (UniProt P18472).
T1 sequence: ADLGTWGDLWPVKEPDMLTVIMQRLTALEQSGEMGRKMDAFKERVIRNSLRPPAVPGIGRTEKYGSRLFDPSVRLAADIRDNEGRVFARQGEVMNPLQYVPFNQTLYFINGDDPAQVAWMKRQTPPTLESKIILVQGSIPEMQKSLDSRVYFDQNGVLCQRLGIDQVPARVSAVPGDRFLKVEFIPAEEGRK
The experiment in a line: SEC; analytical UPLC, Zenix SEC-150, 1.0 mL/min, proteins at 19 μM in 20 mM HEPES pH 7.5, 150 mM NaCl, with 2 mM DTT; mixture kept on ice for 30 min; both purified.

Take “TrbB_(37-161) (E. coli F plasmid) (domain or fragment)”: the binding entry is recorded as “no binding (tested: 19 μM)”.
